From the supplement of paper PMC8728848
This is one part of the list.

What was measured:
Assay in all cases: glycan array binding signal (z-score within array); higher = stronger binding
Conditions in all cases: glycan notation: IUPAC condensed, linker removed
[1] = molecular target: Fuc(a1-2)Gal
In short: (§1)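 The binding signal is a Z-score computed within each array. Data were drawn from 3228 arrays in the Consortium for Functional Glycomics database, restricted to those with a known protein sequence. Scores were averaged over arrays of the same protein sequence at different concentrations or buffers, and over linkers, and negative values can be taken as non-binding.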

[2] = molecular target: Fuc(a1-2)Gal(b1-3)GalNAc
In short: as §1

[3] = molecular target: Fuc(a1-2)Gal(b1-3)GalNAc(a1-3)[Fuc(a1-2)]Gal(b1-4)Glc
In short: as §1

[4] = molecular target: Fuc(a1-2)Gal(b1-3)GalNAc(a1-3)[Fuc(a1-2)]Gal(b1-4)GlcNAc
In short: as §1

[5] = molecular target: Fuc(a1-2)Gal(b1-3)GalNAc(b1-3)Gal
In short: as §1

[6] = molecular target: Fuc(a1-2)Gal(b1-3)GalNAc(b1-3)Gal(a1-4)Gal(b1-4)Glc
In short: as §1

[7] = molecular target: Fuc(a1-2)Gal(b1-3)GalNAc(b1-4)[Neu5Ac(a2-3)]Gal(b1-4)Glc
In short: as §1

[8] = molecular target: Fuc(a1-2)Gal(b1-3)GlcNAc
In short: as §1

[9] = molecular target: Fuc(a1-2)Gal(b1-3)GlcNAc(b1-2)Man(a1-3)[Fuc(a1-2)Gal(b1-3)GlcNAc(b1-2)Man(a1-6)]Man(b1-4)GlcNAc(b1-4)GlcNAc
In short: as §1

[10] = molecular target: Fuc(a1-2)Gal(b1-3)GlcNAc(b1-2)Man(a1-3)[Fuc(a1-2)Gal(b1-3)GlcNAc(b1-2)Man(a1-6)]Man(b1-4)GlcNAc(b1-4)[Fuc(a1-6)]GlcNAc
In short: as §1

[11] = molecular target: Fuc(a1-2)Gal(b1-3)GlcNAc(b1-3)Gal(b1-4)Glc
In short: as §1

[12] = molecular target: Fuc(a1-2)Gal(b1-3)GlcNAc(b1-3)GalNAc
In short: as §1

[13] = molecular target: Fuc(a1-2)Gal(b1-3)GlcNAc(b1-3)[Fuc(a1-2)Gal(b1-3)GlcNAc(b1-6)]GalNAc
In short: as §1

[14] = molecular target: Fuc(a1-2)Gal(b1-3)GlcNAc(b1-3)[Gal(b1-4)GlcNAc(b1-6)]Gal(b1-4)Glc
In short: as §1

[15] = molecular target: Fuc(a1-2)Gal(b1-3)GlcNAc(b1-3)[Neu5Ac(a2-6)Gal(b1-4)GlcNAc(b1-6)]Gal(b1-4)Glc
In short: as §1

[16] = molecular target: Fuc(a1-2)Gal(b1-3)GlcNAc6S
In short: as §1

[17] = molecular target: Fuc(a1-2)Gal(b1-3)[Fuc(a1-4)]GlcNAc
In short: as §1

[18] = molecular target: Fuc(a1-2)Gal(b1-3)[Fuc(a1-4)]GlcNAc(b1-2)Man(a1-3)[Fuc(a1-2)Gal(b1-3)[Fuc(a1-4)]GlcNAc(b1-2)Man(a1-3)]Man(b1-4)GlcNAc(b1-4)GlcNAc
In short: as §1

[19] = molecular target: Fuc(a1-2)Gal(b1-3)[Fuc(a1-4)]GlcNAc(b1-2)Man(a1-3)[Fuc(a1-2)Gal(b1-3)[Fuc(a1-4)]GlcNAc(b1-2)Man(a1-6)]Man(b1-4)GlcNAc(b1-4)[Fuc(a1-6)]GlcNAc(b1-4)[Fuc(a1-6)]GlcNAc
In short: as §1

[20] = molecular target: Fuc(a1-2)Gal(b1-3)[Fuc(a1-4)]GlcNAc(b1-3)[Fuc(a1-3)[Gal(b1-4)]GlcNAc(b1-6)]Gal(b1-4)Glc
In short: as §1

[21] = molecular target: Fuc(a1-2)Gal(b1-3)[Fuc(a1-4)]GlcNAc(b1-3)[Gal(b1-4)GlcNAc(b1-6)]Gal(b1-4)Glc
In short: as §1

[22] = molecular target: Fuc(a1-2)Gal(b1-4)Fuc(a1-3)]GlcNAc(b1-2)Man(a1-3)[Fuc(a1-2)Gal(b1-4)[Fuc(a1-3)]GlcNAc(b1-2)Man(a1-6)]Man(b1-4)GlcNAc(b1-4)GlcNAc
In short: as §1

[23] = molecular target: Fuc(a1-2)Gal(b1-4)Glc
In short: as §1

[24] = molecular target: Fuc(a1-2)Gal(b1-4)Glc6S
In short: as §1

[25] = molecular target: Fuc(a1-2)Gal(b1-4)GlcNAc
In short: as §1

[26] = molecular target: Fuc(a1-2)Gal(b1-4)GlcNAc(b1-2)Man
In short: as §1

[27] = molecular target: Fuc(a1-2)Gal(b1-4)GlcNAc(b1-2)Man(a1-3)[Fuc(a1-2)Gal(b1-4)GlcNAc(b1-2)Man(a1-6)]Man(b1-4)GlcNAc(b1-4)GlcNAc
In short: as §1

[28] = molecular target: Fuc(a1-2)Gal(b1-4)GlcNAc(b1-2)Man(a1-3)[Fuc(a1-2)Gal(b1-4)GlcNAc(b1-2)Man(a1-6)]Man(b1-4)GlcNAc(b1-4)[Fuc(a1-6)]GlcNAc
In short: as §1

[29] = molecular target: Fuc(a1-2)Gal(b1-4)GlcNAc(b1-2)[Fuc(a1-2)Gal(b1-4)GlcNAc(b1-4)]Man(a1-3)[Fuc(a1-2)Gal(b1-4)GlcNAc(b1-2)Man(a1-6)]Man(b1-4)GlcNAc(b1-4)GlcNAc
In short: as §1

[30] = molecular target: Fuc(a1-2)Gal(b1-4)GlcNAc(b1-3)Gal(b1-4)GlcNAc
In short: as §1

B1: Ovorubin (Pomacea canaliculata), J7I2T6 (protein)
chain: MFVATSLLLAIATLVVRASPHNYLIMDIEPPKSVSERDILNLLSPLQVKHSFRVTGSTRLLIVIRLDAQSYEKLDEITVPGKVEVIPAVNMADTMERCGVSWPRVELTDDNVTLFESESTLTDVTKEQLKAMLIGYGEHMSGLLQAHRFEYYQAAGATPHRHFVFVNSVPDEIEVFGREGVDIWGGPGEFVVKPQYVTRI
Question: B1 was tested. Which “glycan array binding signal (z-score)” value [1] did it give?
Answer: 0.093

Question: What about the “glycan array binding signal (z-score)” value [2] of the same binder?
Answer: 0.098

Question: And the “glycan array binding signal (z-score)” value [3]?
Answer: 0.18

Question: And the “glycan array binding signal (z-score)” value [4]?
Answer: -0.341

Question: What about the “glycan array binding signal (z-score)” value [5] of the same binder?
Answer: -0.987

Question: What about the “glycan array binding signal (z-score)” value [6] of the same binder?
Answer: -0.745

Question: What about the “glycan array binding signal (z-score)” value [7] of the same binder?
Answer: 0.056

Question: And the “glycan array binding signal (z-score)” value [8]?
Answer: 1.06

Question: And the “glycan array binding signal (z-score)” value [9]?
Answer: -0.378

Question: And the “glycan array binding signal (z-score)” value [10]?
Answer: 1.06

Question: What about the “glycan array binding signal (z-score)” value [11] of the same binder?
Answer: -0.018

Question: And the “glycan array binding signal (z-score)” value [12]?
Answer: -0.329

Question: What about the “glycan array binding signal (z-score)” value [13] of the same binder?
Answer: 0.441

Question: And the “glycan array binding signal (z-score)” value [14]?
Answer: 0.184

Question: And the “glycan array binding signal (z-score)” value [15]?
Answer: 0.56

Question: What about the “glycan array binding signal (z-score)” value [16] of the same binder?
Answer: 0.256

Question: What about the “glycan array binding signal (z-score)” value [17] of the same binder?
Answer: -0.817

Question: And the “glycan array binding signal (z-score)” value [18]?
Answer: 0.027

Question: What about the “glycan array binding signal (z-score)” value [19] of the same binder?
Answer: -0.094

Question: What about the “glycan array binding signal (z-score)” value [20] of the same binder?
Answer: -0.241

Question: What about the “glycan array binding signal (z-score)” value [21] of the same binder?
Answer: -0.744

Question: And the “glycan array binding signal (z-score)” value [22]?
Answer: 0.055

Question: What about the “glycan array binding signal (z-score)” value [23] of the same binder?
Answer: 0.009

Question: What about the “glycan array binding signal (z-score)” value [24] of the same binder?
Answer: 0.202

Question: What about the “glycan array binding signal (z-score)” value [25] of the same binder?
Answer: 0.075

Question: What about the “glycan array binding signal (z-score)” value [26] of the same binder?
Answer: 1.08

Question: What about the “glycan array binding signal (z-score)” value [27] of the same binder?
Answer: 2.27

Question: And the “glycan array binding signal (z-score)” value [28]?
Answer: 1.59

Question: What about the “glycan array binding signal (z-score)” value [29] of the same binder?
Answer: 0.623

Question: What about the “glycan array binding signal (z-score)” value [30] of the same binder?
Answer: 0.006
